Each structure is given as a SMILES string. The list shows only some results of the screen, not a fair sample: it gathers tests that were run many times, whatever their T/C, doses with no T/C, and many T/C values between a quarter and a half above the control. Further doses and runs are listed elsewhere. T/C gives the treated animals as a percentage of the vehicle group. Some doses have a count of surviving animals in place of a T/C: the source holds a T/C of zero for them, seemingly a mark for toxic or unscored doses. Some survivor counts are full or nearly so, which does not show that the dose was tolerated: survival well below the control is almost never listed, so the zero probably covers shortened survival too. Counts of survivors are from the toxicity check (mostly the fifth day) where no day follows; animals may have died later. Schedule codes are those of the source, taken here to give the interval after Q, in days (D) or hours (H), and the number of doses after X. Some schedule codes hold Z or #, which are not explained here. Some structures stand for samples that the source files as different forms (salt, stereo form or complex); doses refer to the form tested. Some entries were tested several times; the values are given in rising order. Where survival is the endpoint, this PubChem deposit counts one and a half times the control or more as active, and values a quarter to a half above the control carry no call in these data; other NCI protocols may use other cut-offs. Brackets with × stand for listed records that agree.

For this assay, the system named is L1210 leukemia ip in BDF1 mice, survival T/C. As to the kind of experiment: NCI In Vivo Anticancer Drug Screen. Data for tumor model L1210 Leukemia (intraperitoneal) in B6D2F1 (BDF1) mice. As to conditions: T/C endpoint: mean survival time, higher T/C = longer survival.
Setting [1] is: dose: 400.0 mg/kg/injection, schedule: Q04DX003 (ip), vehicle: saline.
Setting [2] is: dose: 400.0 mg/kg/injection, schedule: Q01DX009 (ip), vehicle: Klucel (hydroxypropylcellulose) (HPC).
[3] abbreviates: dose: 400.0 mg/kg/injection, schedule: Q04DX002 (ip), vehicle: saline with Tween-80.
[4] abbreviates: dose: 150.0 mg/kg/injection, schedule: Q01DX001 (ip), vehicle: saline.
Setting [5] is: dose: 300.0 mg/kg/injection, schedule: Q01DX001 (ip), vehicle: saline.
[6] abbreviates: dose: 200.0 mg/kg/injection, schedule: Q04DX003 (ip), vehicle: saline with Tween-80.
The mark [7] stands for this setting: dose: 400.0 mg/kg/injection, schedule: Q04DX003 (ip), vehicle: saline with Tween-80.
Setting [8] is: dose: 400.0 mg/kg/injection, schedule: Q01DX001 (ip), vehicle: other.

As for `CC1CN=C(c2ccc(NC(=O)c3ccc(C(=O)Nc4ccc(C5=NCC(C)N5)cc4)c(N)c3)cc2)N1` (centres undefined), the survivor count by setting is: (dose: 60.0 mg/kg/injection, schedule: Q01DX Z (ip), vehicle: saline) 3 of 6; (dose: 120.0 mg/kg/injection, schedule: Q01DX Z (ip), vehicle: saline) 0 of 6.

Regarding `CC12CCC3C(C1)C(C(=O)O2)C(=O)OC3(C)C` (centres undefined), the survivor count (dose: 300.0 mg/kg/injection, schedule: Q01DX009 (ip), vehicle: Klucel (hydroxypropylcellulose) (HPC)) is recorded as 0 of 6.

Regarding `c1ccc2c(c1)CCN(CCCCN1CCc3ccccc3C1)C2`, the survivor count was 0 of 6 (dose: 200.0 mg/kg/injection, schedule: Q04DX003 (ip), vehicle: saline) and 0 of 6 under setting [1].

`Nc1nc(N)c2nc(CNc3ccc(C(=O)NCC(=O)O)cc3)cnc2n1`: the survivor count (dose: 80.0 mg/kg/injection, schedule: Q01DX009 (ip), vehicle: Klucel (hydroxypropylcellulose) (HPC)) is 3 of 5.

Consider `CCCCc1ccc(NC(=O)N(CCCl)N=O)cc1`, for which the T/C is 125 % of control (dose: 0.7 mg/kg/injection, schedule: Q01DX009 (ip), vehicle: carboxymethylcellulose (CMC)); 132 % of control (dose: 1.5 mg/kg/injection, schedule: Q01DX009 (ip), vehicle: carboxymethylcellulose (CMC)); 138 % of control (dose: 3.0 mg/kg/injection, schedule: Q01DX009 (ip), vehicle: carboxymethylcellulose (CMC)); 128 % of control (dose: 18.7 mg/kg/injection, schedule: Q01DX001 (ip), vehicle: carboxymethylcellulose (CMC)); 143 % of control (dose: 75.0 mg/kg/injection, schedule: Q01DX001 (ip), vehicle: carboxymethylcellulose (CMC)); 142 % of control (dose: 150.0 mg/kg/injection, schedule: Q04DX003 (ip), vehicle: saline with Tween-80). Also, the T/C (dose: 300.0 mg/kg/injection, schedule: Q04DX003 (ip), vehicle: saline with Tween-80) was 137 % of control. Also, for the setting “dose: 300.0 mg/kg/injection, schedule: Q01DX001 (ip), vehicle: carboxymethylcellulose (CMC)”, the survivor count is given as 6 of 6.

`O=S(=O)(NO)c1ccc(Cl)cc1`: the survivor count under setting [1] is 5 of 6.

Regarding `COc1cc(C2c3cc4c(cc3C(O)C(CO)C2CO)OCO4)cc(OC)c1OC` (centres undefined), the T/C runs as follows: (dose: 40.0 mg/kg/injection, schedule: Q01DX Z (ip), vehicle: carboxymethylcellulose (CMC)) 127 % of control; (dose: 70.0 mg/kg/injection, schedule: Q01DX Z (ip), vehicle: carboxymethylcellulose (CMC)) 126 % of control; (dose: 300.0 mg/kg/injection, schedule: Q04DX003 (ip), vehicle: saline) 136 % of control. Also, the survivor count (dose: 560.0 mg/kg/injection, schedule: Q01DX Z (ip), vehicle: carboxymethylcellulose (CMC)) was 6 of 6.

For the compound `C=CS(=O)(=O)c1ccc(N)cc1`, the survivor count under setting [2] is 0 of 6.

Regarding `CN1C2CCC1CC(OC(c1ccccc1)c1ccccc1)C2` (centres undefined), the survivor count by setting is: (dose: 26.0 mg/kg/injection, schedule: Q01DX009 (ip), vehicle: saline) 2 of 6; (dose: 40.0 mg/kg/injection, schedule: Q01DX009 (ip), vehicle: saline) 0 of 6 and 1 of 6; (dose: 50.0 mg/kg/injection, schedule: Q01DX009 (ip), vehicle: saline) 0 of 6; (dose: 80.0 mg/kg/injection, schedule: Q01DX001 (ip), vehicle: saline) 0 of 6; (dose: 80.0 mg/kg/injection, schedule: Q01DX009 (ip), vehicle: saline) 0 of 6; (dose: 100.0 mg/kg/injection, schedule: Q01DX001 (ip), vehicle: saline) 0 of 6. For the same compound, the survivor count reads like this: (dose: 125.0 mg/kg/injection, schedule: Q01DX001 (ip), vehicle: acetone) 0 of 6; (dose: 160.0 mg/kg/injection, schedule: Q01DX009 (ip), vehicle: saline) 0 of 6; (dose: 200.0 mg/kg/injection, schedule: Q01DX001 (ip), vehicle: saline) 0 of 6; (dose: 250.0 mg/kg/injection, schedule: Q01DX001 (ip), vehicle: acetone) 1 of 6; (dose: 320.0 mg/kg/injection, schedule: Q01DX009 (ip), vehicle: saline) 0 of 6; (dose: 400.0 mg/kg/injection, schedule: Q01DX001 (ip), vehicle: saline) 0 of 6. The survivor count was 0 of 6 (dose: 500.0 mg/kg/injection, schedule: Q01DX001 (ip), vehicle: acetone); 0 of 6 (dose: 800.0 mg/kg/injection, schedule: Q01DX001 (ip), vehicle: saline); 0 of 6 (dose: 1000.0 mg/kg/injection, schedule: Q01DX001 (ip), vehicle: acetone).

Regarding `CNC(Cc1ccccc1)c1ccc(OC)cc1` (centres undefined), the survivor count under setting [2] is reported as 0 of 6.

`CCOc1ccc(NC(=S)NC(=O)C(C)Oc2ccccc2)cc1` (centres undefined): the T/C reads like this: (dose: 100.0 mg/kg/injection, schedule: Q01DX009 (ip), vehicle: saline with Tween-80) 91 (2×), 92, 96 % of control; (dose: 100.0 mg/kg/injection, schedule: Q04DX002 (ip), vehicle: saline with Tween-80) 87, 95, 96, 104 % of control; (dose: 200.0 mg/kg/injection, schedule: Q01DX009 (ip), vehicle: saline with Tween-80) 91, 93, 97, 168 % of control; (dose: 200.0 mg/kg/injection, schedule: Q04DX002 (ip), vehicle: saline with Tween-80) 87, 94, 95, 104 % of control; (dose: 400.0 mg/kg/injection, schedule: Q01DX009 (ip), vehicle: saline with Tween-80) 87, 93, 101, 106 % of control; under setting [3], 88, 97, 102, 161 % of control.

On to `CC([NH-])C(=O)[O-].[K+].[O]=[Co][O-]` (centres undefined), for which the survivor count under setting [4] is 1 of 6 and the survivor count under setting [5] is 0 of 6.

Regarding `CC1CCC(N=S=O)CC1` (centres undefined) (tested in a mixture with another compound), the survivor count runs as follows: under setting [6], 3 of 6; under setting [3], 1 of 3; under setting [7], 0 of 6.

On to `CCOC(=O)Sc1ccccc1`, for which the survivor count under setting [8] is 0 of 3.

As for `CCCCCCC/C=N\N=C(N)N`, the survivor count (dose: 120.0 mg/kg/injection, schedule: Q01DX Z (ip), vehicle: carboxymethylcellulose (CMC)) was 1 of 6.

In the case of `O=C(N/N=C/c1cccc([N+](=O)[O-])c1)C(O)C(O)C(O)C(O)CO` (centres undefined), for the setting “dose: 400.0 mg/kg/injection, schedule: Q01DX009 (ip), vehicle: carboxymethylcellulose (CMC)”, the survivor count was 2 of 6.

With `O=C(O)c1c(-c2nccc3ccccc23)[nH]c(-c2ccccc2)c1S(=O)(=O)O`, the survivor count under setting [5] was 2 of 6.

On to `CCCCCCCCCCCCCCCCC/C=N\NC(=O)CCCC(=O)N/N=C/CCCCCCCCCCCCCCCCC`, for which the survivor count by setting is: (dose: 100.0 mg/kg/injection, schedule: Q01DX001 (ip), vehicle: other) 4 of 4; under setting [8], 4 of 4.

For `O=NN(Cc1ccc(Cl)cc1)C(=O)NCc1ccc(Cl)cc1`, the T/C (dose: 300.0 mg/kg/injection, schedule: Q01DX Z (ip), vehicle: carboxymethylcellulose (CMC)) is 127 % of control.

In the case of `C1=N/C=C\C=C/c2ccc[n+](CCCCC[n+]3ccccc3-c3ccccn3)c21`, the survivor count reads like this: (dose: 75.0 mg/kg/injection, schedule: Q01DX001 (ip), vehicle: saline) 0 of 6; under setting [4], 0 of 6; under setting [5], 0 of 6.

For the compound `CCC(C)C(CN)(CCN(C)CC)c1cccc2ccccc12` (centres undefined), the survivor count runs as follows: under setting [6], 3 of 6; under setting [7], 0 of 6.

For the origin of these results see PubChem BioAssay AID248 (DTP/NCI, 2004).
